PubChem BioAssay AID504804, Drosophila RNAi Screening Center, 2011
The screen tested about 19,000 reagents; below is an unselected part of those that have a named target and a result. Of all reagents, 47 (0.25%) were called active. 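Signals are raw, not normalised; exact z-scores behind calls not deposited; actives needed confirmation, so some wells reaching 2 SD are inactive.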 Entries without a mark were called inactive. Reagents against one gene are numbered here.

Purpose: 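Fly genes whose loss lessens doxorubicin-driven cell death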 (primary screen)
System: Drosophila Kc cells
Knock-down reagent: long dsRNA against Drosophila genes, 0.5 µg dsRNA per well
Duration: 96 h (48 h knock-down, then 48 h drug)
Treatment: doxorubicin 5 µg/ml for 48 h, added 48 h after dsRNA
Detection: 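Viability measured as cellular ATP by luminescence after 48 h knock-down then 48 h doxorubicin at 5 µg/ml; unnormalised plate counts for each replicate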
Scale: raw ATP luminescence: higher = more viable cells, protection from doxorubicin
Call rule: 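z-score of 2 or more over plate mean in both duplicates, retained only when retests and separate dsRNAs confirm the protection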

no.	Gene	dsRNA no.	raw ATP luminescence, replicate 1	raw ATP luminescence, replicate 2
1	CG31546	1	97193	33380
2	CG4374	1	66490	55880
3	CG31125	1	2.15e5	2.33e5
4	Nmdmc	1	86453	42250
5	Med	1	13140	8760
6	CG16710	1	67880	56420
7	Polr1A	1	57073	48690
8	Gdi	1	94567	70023
9	Prp40	1	78380	63043
10	CG32971	1	2.85e5	2.52e5
11	Pburs	1	50587	69773
12	CG14448	1	61640	53800
13	CG14627	1	44490	37370
14	CG8613	1	70827	65540
15	CG3526	1	1.92e5	2.02e5
16	CG3526	2	72130	47690

In a second layout: 4 of the entries above
Gene	dsRNA no.	raw ATP luminescence, replicate 1	raw ATP luminescence, replicate 2
CG16710	1	67880	56420
Polr1A	1	57073	48690
Gdi	1	94567	70023
Prp40	1	78380	63043

More results follow:
no.	Gene	dsRNA no.	raw ATP luminescence, replicate 1	raw ATP luminescence, replicate 2
17	nemy	1	1.20e5	1.07e5
18	nemy	2	95863	59330
19	CCT4	1	58803	73100
20	Aps	1	1.10e5	77050
21	CG10064	1	74263	84370
22	Rcd6	1	55897	57597
23	CG3706	1	57870	48310
24	Ir8a	1	2.96e5	3.41e5
25	Ir8a	2	3.63e5	3.55e5
26	qless	1	54390	44410
27	qless	2	51740	69970
28	CG13297	1	76550	79163
29	Xpac	1	48130	43580
30	Ank2	1	1.51e5	1.67e5
31	Ank2	2	1.01e5	84667
32	Ank2	3	95053	98580
33	Ank2	4	98743	93260
34	plh	1	46703	38000
